The results in this text go back to PMC6317983.

The chains behind the UniProt entries cited, without tags or fusion partners.
UniProt A0A5A4N0D4, entry or part of it: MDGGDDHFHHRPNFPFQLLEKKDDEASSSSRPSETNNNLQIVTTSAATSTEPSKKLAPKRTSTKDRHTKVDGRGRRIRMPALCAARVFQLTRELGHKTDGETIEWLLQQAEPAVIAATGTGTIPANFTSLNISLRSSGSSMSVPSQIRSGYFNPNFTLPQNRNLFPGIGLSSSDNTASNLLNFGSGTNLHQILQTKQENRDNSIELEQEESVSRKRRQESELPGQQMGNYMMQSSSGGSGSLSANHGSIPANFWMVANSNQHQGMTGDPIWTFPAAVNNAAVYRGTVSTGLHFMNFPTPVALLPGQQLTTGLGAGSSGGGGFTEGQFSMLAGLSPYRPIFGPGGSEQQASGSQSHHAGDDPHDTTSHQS

Weaker means in comparison with the reference protein, sequence or condition of that experiment.

The data set addresses His-AaTCP14 (His-TF-AaTCP14) (Artemisia annua) (UniProt A0A5A4N0D4). The experiment in a line: EMSA. Particulars: DIG Gel Shift Kit 2nd Generation (Roche); 0.5 ug His-AaTCP14 or His-TF; pH and temperature not stated; recombinant protein; residues 1-369; protein details: His-TF (pCold-TF); label: DIG (kit). For orientation: A gel shift assay detects complexes by their altered migration in electrophoresis.

For “GGTTGGTTGCATTATCTGGCAAACACGTAAACAATCAAATGC (double strand) [A1q-mutated1]”, the binding result is “binds more weakly”.
The same measure for “GGTTGGTTGCATTATCTTTAAAACACGTAAACAATCAAATGC (double strand) [A1q-mutated2]”: “binds more weakly”; for “GTCGCTAAACTTGCCACGGTAAACATTTTTCAACTCTTATTA (double strand) [D2q-mutated1]”: “binds more weakly”; for “GTCGCTAAACTTGCCACGTTGAAACATTTTTCAACTCTTATTA (double strand) [D2q-mutated2]”: “binds more weakly”.
